Measured values as given in patent US20070060566A1, “Benzazepine derivatives as histamine h3 antagonists” (priority 2003, published 2007).
Some entries share one result that the patent states for a list of compounds.

Chains of the proteins cited; added tags and fusions are not shown. Lines headed by an entry give the natural chain unless they say otherwise; changes in a name come on top.
UniProt Q9Y5N1: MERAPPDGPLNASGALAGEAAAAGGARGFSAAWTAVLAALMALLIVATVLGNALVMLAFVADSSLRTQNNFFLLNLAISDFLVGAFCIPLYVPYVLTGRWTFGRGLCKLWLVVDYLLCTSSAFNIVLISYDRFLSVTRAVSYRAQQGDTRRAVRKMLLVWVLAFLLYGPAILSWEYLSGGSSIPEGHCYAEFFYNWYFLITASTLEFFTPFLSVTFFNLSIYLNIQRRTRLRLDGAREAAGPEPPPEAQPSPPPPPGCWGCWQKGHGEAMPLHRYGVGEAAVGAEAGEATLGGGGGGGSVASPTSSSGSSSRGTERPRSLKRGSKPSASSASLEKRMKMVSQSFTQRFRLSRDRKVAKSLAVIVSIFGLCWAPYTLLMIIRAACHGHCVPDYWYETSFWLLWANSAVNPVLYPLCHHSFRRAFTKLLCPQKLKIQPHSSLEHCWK

These compounds were tested against T1, human histamine H3 receptor (Homo sapiens, UniProt Q9Y5N1) (assay: Histamine H3 functional antagonist assay ([35S]GTPγS SPA on membranes)). Conditions: membranes of CHO K1 cells expressing human histamine H3; histamine 0.3 μM.
T1 construct: expressed in transfected cells; host or cells: CHO K1 cells carrying the pSwitch regulatory plasmid, transfected with pGeneH3, induced with mifepristone; clone 3H3
Assay type: biochemical
Excerpt: A membrane preparation containing histamine H3 receptors may be prepared in accordance with the following procedures:
(i) Generation of Histamine H3 Cell Line
DNA encoding the human histamine H3 gene (Huvar, A. et al. (1999) Mol. Pharmacol. 55(6), 1101-1107) was cloned into a holding vector, pCDNA3.1 TOPO (InVitrogen) and its cDNA was isolated from this vector by restriction digestion of plasmid DNA with the enzymes BamH1 and Not-1 and ligated into the inducible expression vector pGene (InVitrogen) digested with the same enzymes. The GeneSwitch™ system (a system where in transgene expression is switched off in the absence of an inducer and switched on in the presence of an inducer) was performed as described in U.S. Pat. Nos. 5,364,791; 5,874,534; and 5,935,934. Ligated DNA was transformed into competent DH5α E. coli host bacterial cells and plated onto Luria Broth (LB) agar containing Zeocin™ (an antibiotic which allows the selection of cells expressing the sh ble gene which is present on pGene and pSwitch) at 50 μg ml^−1. Colonies containing the re-ligated plasmid were identified by restriction analysis. DNA for transfection into mammalian cells was prepared from 250 ml cultures of the host bacterium containing the pGeneH3 plasmid and isolated using a DNA preparation kit (Qiagen Midi-Prep) as per manufacturers guidelines (Qiagen).
CHO K1 cells previously transfected with the pSwitch regulatory plasmid (InVitrogen) were seeded at 2×10e6 cells per T75 flask in Complete Medium, containing Hams F12 (GIBCOBRL, Life Technologies) medium supplemented with 10% v/v dialysed foetal bovine serum, L-glutamine, and hygromycin (100 μg ml^−1), 24 hours prior to use. Plasmid DNA was transfected into the cells using Lipofectamine plus according to the manufacturers guidelines (InVitrogen). 48 hours post transfection cells were placed into complete medium supplemented with 500 μg ml^−1 Zeocin™.
10-14 days post selection 10 nM Mifepristone (InVitrogen), was added to the culture medium to induce the expression of the receptor. 18 hours post induction cells were detached from the flask using ethylenediamine tetra-acetic acid (EDTA; 1:5000; InVitrogen), following several washes with phosphate buffered saline pH 7.4 and resuspended in Sorting Medium containing Minimum Essential Medium (MEM), without phenol red, and supplemented with Earles salts and 3% Foetal Clone II (Hyclone). Approximately 1×10e7 cells were examined for receptor expression by staining with a rabbit polyclonal antibody, 4a, raised against the N-terminal domain of the histamine H3 receptor, incubated on ice for 60 minutes, followed by two washes in sorting medium. Receptor bound antibody was detected by incubation of the cells for 60 minutes on ice with a goat anti rabbit antibody, conjugated with Alexa 488 fluorescence marker (Molecular Probes). Following two further washes with Sorting Medium, cells were filtered through a 50 μm Filcon™ (BD Biosciences) and then analysed on a FACS Vantage SE Flow Cytometer fitted with an Automatic Cell Deposition Unit. Control cells were non-induced cells treated in a similar manner. Positively stained cells were sorted as single cells into 96-well plates, containing Complete Medium containing 500 μg ml^−1 Zeocin™ and allowed to expand before reanalysis for receptor expression via antibody and ligand binding studies. One clone, 3H3, was selected for membrane preparation.
(ii) Membrane Preparation from Cultured Cells
All steps of the protocol are carried out at 4° C. and with pre-cooled reagents. The cell pellet is resuspended in 10 volumes of buffer A2 containing 50 mM N-2-hydroxyethylpiperazine-N′-2-ethanesulfonic acid (HEPES) (pH 7.40) supplemented with 10e-4M leupeptin (acetyl-leucyl-leucyl-arginal; Sigma L2884), 25 μg/ml bacitracin (Sigma B0125), 1 mM ethylenediamine tetra-acetic acid (EDTA), 1 mM phenylmethylsulfonyl fluoride (PMSF) and 2×10e-6M pepstain A (Sigma). […]

Antagonism (pKb), > 6.5 pKb:
O=C(Nc1ccc2c(c1)CCN(C1CCC1)CC2)c1cccc(C(F)(F)F)c1.O=C(O)C(F)(F)F [Example 251, N-(3-Cyclobutyl-2,3,4,5-tetrahydro-1H-3-benzazepin-7-yl)-3-(trifluoromethyl)benzamide trifluoroacetate]
Cc1cc(C(=O)Nc2ccc3c(c2)CCN(C2CCC2)CC3)nn1-c1ccccc1.O=C(O)C(F)(F)F [Example 196, N-(3-Cyclobutyl-2,3,4,5-tetrahydro-1H-3-benzazepin-7-yl)-5-methyl-1-phenyl-1H-pyrazole-3-carboxamide trifluoroacetate]
CCOc1ccccc1NC(=O)Nc1ccc2c(c1)CCN(C1CCC1)CC2 [Example 139, N-(3-Cyclobutyl-2,3,4,5-tetrahydro-1H-3-benzazepin-7-yl)-N′-[2-(ethyloxy)phenyl]urea]
O=C(Nc1ccc2c(c1)CCN(C1CCC1)CC2)c1ccc2snnc2c1.O=C(O)C(F)(F)F [Example 231, N-(3-Cyclobutyl-2,3,4,5-tetrahydro-1H-3-benzazepin-7-yl)-1,2,3-benzothiadiazole-5-carboxamide trifluoroacetate]
O=C(Nc1ccc2c(c1)CCN(C1CCC1)CC2)c1ccc(-c2cncnc2)nc1 [Example 100, N-(3-Cyclobutyl-2,3,4,5-tetrahydro-1H-3-benzazepin-7-yl)-6-(5-pyrimidinyl)-3-pyridinecarboxamide]
Cc1cc(C)n2nc(C(=O)Nc3ccc4c(c3)CCN(C3CCC3)CC4)cc2n1.O=C(O)C(F)(F)F [Example 199, N-(3-Cyclobutyl-2,3,4,5-tetrahydro-1H-3-benzazepin-7-yl)-5,7-dimethylpyrazolo[1,5-a]pyrimidine-2-carboxamide trifluoroacetate]
O=C(Nc1ccc2c(c1)CCN(C1CCC1)CC2)c1csc(-c2ccccc2)n1 [Example 85, N-(3-Cyclobutyl-2,3,4,5-tetrahydro-1H-3-benzazepin-7-yl)-2-phenyl-1,3-thiazole-4-carboxamide]
N#Cc1ccc(C(=O)Nc2ccc3c(c2)CCN(C2CCC2)CC3)cn1 [Example 57, 6-Cyano-N-(3-cyclobutyl-2,3,4,5-tetrahydro-1H-3-benzazepin-7-yl)-3-pyridinecarboxamide]
Cc1c(C(=O)Nc2ccc3c(c2)CCN(C2CCCCC2)CC3)cnn1-c1ccccc1.O=C(O)C(F)(F)F [Example 13, N-(3-Cyclohexyl-2,3,4,5-tetrahydro-1H-3-benzazepin-7-yl)-5-methyl-1-phenyl-1H-pyrazole-4-carboxamide trifluoroacetate]
O=C(Nc1ccc2c(c1)CCN(C1CCC1)CC2)c1[nH]nnc1Oc1ccc(F)cc1.O=C(O)C(F)(F)F [Example 205, N-(3-Cyclobutyl-2,3,4,5-tetrahydro-1H-3-benzazepin-7-yl)-4-[(4-fluorophenyl)oxy]-1H-1,2,3-triazole-5-carboxamide trifluoroacetate]
Cc1cc(C(=O)Nc2ccc3c(c2)CCN(C2CCC2)CC3)n(-c2ccccc2)n1.O=C(O)C(F)(F)F [Example 200, N-(3-Cyclobutyl-2,3,4,5-tetrahydro-1H-3-benzazepin-7-yl)-3-methyl-1-phenyl-1H-pyrazole-5-carboxamide trifluoroacetate]
Cc1cc2ncc(C(=O)Nc3ccc4c(c3)CCN(C3CCC3)CC4)c(C)n2n1.O=C(O)C(F)(F)F [Example 232, N-(3-Cyclobutyl-2,3,4,5-tetrahydro-1H-3-benzazepin-7-yl)-2,7-dimethylpyrazolo[1,5-a]pyrimidine-6-carboxamide trifluoroacetate]
O=C(Nc1ccc2c(c1)CCN(C1CCC1)CC2)c1ccc(-c2ccccn2)cn1 [Example 107, N-(3-Cyclobutyl-2,3,4,5-tetrahydro-1H-3-benzazepin-7-yl)-2,3′-bipyridine-6′-carboxamide]
